Laboratory results from article doi:10.1101/309765.
Results are given in words; binding and its absence hold for the method and conditions named. Binding seen in cells or lysates may run through a third protein. Some results given as binding are weak or reduced against the parent protein; the word gives no strength.

Chains of the proteins cited; added tags and fusions are not shown.
UniProt P98170, whole entry: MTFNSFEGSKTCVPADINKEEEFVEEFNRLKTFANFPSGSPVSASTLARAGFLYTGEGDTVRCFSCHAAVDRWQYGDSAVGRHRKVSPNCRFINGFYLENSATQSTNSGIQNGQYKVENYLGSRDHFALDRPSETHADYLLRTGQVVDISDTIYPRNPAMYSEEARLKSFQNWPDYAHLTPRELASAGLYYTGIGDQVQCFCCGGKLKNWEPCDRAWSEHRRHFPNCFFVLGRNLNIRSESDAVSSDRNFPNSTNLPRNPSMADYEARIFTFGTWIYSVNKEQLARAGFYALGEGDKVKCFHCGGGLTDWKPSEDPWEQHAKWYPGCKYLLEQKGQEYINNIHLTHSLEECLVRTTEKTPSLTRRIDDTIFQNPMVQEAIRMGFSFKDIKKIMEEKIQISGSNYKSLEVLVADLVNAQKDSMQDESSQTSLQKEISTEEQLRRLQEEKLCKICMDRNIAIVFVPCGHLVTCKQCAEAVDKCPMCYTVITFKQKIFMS
UniProt P08047, whole entry: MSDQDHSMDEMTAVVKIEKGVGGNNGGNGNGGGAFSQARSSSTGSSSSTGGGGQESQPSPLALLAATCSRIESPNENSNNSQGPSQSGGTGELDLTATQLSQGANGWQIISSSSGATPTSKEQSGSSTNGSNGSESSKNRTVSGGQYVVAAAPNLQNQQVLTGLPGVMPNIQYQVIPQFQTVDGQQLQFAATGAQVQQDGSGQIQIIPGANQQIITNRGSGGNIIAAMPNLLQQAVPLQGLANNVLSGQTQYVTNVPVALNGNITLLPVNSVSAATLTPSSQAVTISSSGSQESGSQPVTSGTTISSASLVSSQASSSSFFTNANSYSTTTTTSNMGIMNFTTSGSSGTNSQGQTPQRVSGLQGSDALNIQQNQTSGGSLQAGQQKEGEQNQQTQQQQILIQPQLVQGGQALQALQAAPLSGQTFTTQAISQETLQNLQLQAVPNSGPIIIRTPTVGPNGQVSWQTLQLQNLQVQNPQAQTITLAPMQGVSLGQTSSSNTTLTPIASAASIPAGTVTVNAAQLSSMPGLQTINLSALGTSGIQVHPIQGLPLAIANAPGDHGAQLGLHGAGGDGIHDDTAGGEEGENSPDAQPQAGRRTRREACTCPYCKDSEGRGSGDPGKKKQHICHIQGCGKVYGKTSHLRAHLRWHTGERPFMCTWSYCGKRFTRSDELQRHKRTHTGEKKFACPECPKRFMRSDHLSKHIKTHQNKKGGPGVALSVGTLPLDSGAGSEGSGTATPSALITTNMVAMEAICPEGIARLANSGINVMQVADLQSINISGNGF

What was measured:
[1] = biological target: HA-tagged XIAP (X-linked inhibitor of apoptosis protein) (human) (UniProt P98170); assay: co-IP
GFP-tagged Sp1 (human) = GFP-tagged Sp1 (human) (UniProt P08047); assay: co-IP

binding [1]	binding (GFP-tagged Sp1 (human))	Substance
binds		Sp1 (endogenous) (from UniProt P08047 1-785)
	binds	HA-tagged XIAP (X-linked inhibitor of apoptosis protein) (from UniProt P98170 1-497)
binds		GFP-tagged Sp1 (from UniProt P08047 1-785)
